PubChem BioAssay AID1259308 | NCATS | 2017

Test: 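Genes whose loss raises luciferase production in HEK293 cells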 (primary screen)
Cell system: human HEK293 embryonic kidney cells stably expressing firefly luciferase (HEK-CMV-Luc2-Hygro)
Reagent: single siRNA against human genes, 0.8 pmol siRNA per well
Duration: 72 h
Measurement: 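Reporter luminescence and viable-cell signal on separate replicate plates, given as percent of non-targeting control and median/MAD z-scores, plus per-cell luciferase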
Direction: total luciferase, z-score and total luciferase, % of control: higher = more reporter protein produced; luciferase per cell, z-score: higher = more reporter output per viable cell; viable cells, % of control: higher = more viable cells
Rule for the call: 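An siRNA counts as active if its total luciferase robust z-score exceeds 3; genes with two or more such siRNAs out of three were retested with fresh siRNAs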
Calls: active = raised luciferase; inactive = no rise
The whole screen tested about 59,000 reagents; shown is an unselected part. About 1,510 of them (2.6%) count as active. 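Calls use total luciferase alone and ignore viability, so some active siRNAs may act by altering cell number.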 A number with no mark means an inactive call. Reagents against one gene are numbered here. No sequences are given here.

gene knocked down	reagent no.	total luciferase, z-score	total luciferase, % of control	luciferase per cell, z-score	viable cells, % of control
VDAC1	1	0.273	87.3	0.139	94.1
VDAC1	2	-1.08	60.3	-1.28	94.5
VDAC1	3	-0.696	68	-1.02	99.5
C10orf71	1	-0.401	73.9	-0.169	86.3
C10orf71	2	-0.945	63.1	-0.568	81.9
C10orf71	3	0.449	90.8	-0.321	110
DRC7	1	0.172	85.3	0.829	76.6
DRC7	2	-0.318	75.6	-0.244	90
DRC7	3	-0.282	76.3	-0.497	97.1
TMEM229B	1	2.72	136	3.49	60.7
TMEM229B	2	-2.43	33.6	-2.38	70.2
TMEM229B	3	-2.09	40.3	-1.11	60.4
TRAPPC8	1	-0.869	64.6	-0.186	75.8
TRAPPC8	2	0.148	84.8	0.499	83.1
TRAPPC8	3	0.745	96.7	0.183	103
ANKRD26	1	0.881	99.4	0.461	98.4
ANKRD26	2	-0.218	77.6	-0.587	101
ANKRD26	3	2.46	131	2.72	71.4
NEDD4L	1	0.59	93.6	0.467	92.5
NEDD4L	2	0.109	84	-0.291	101
NEDD4L	3	-0.116	79.6	-1.03	117
IFNA21	1	-0.406	73.8	0.00845	82.3
IFNA21	2	1.35	109	1.13	90.2
IFNA21	3	1.51	112	2.34	67.6

Individual results from the list.
Value for C10orf71 #3 under “total luciferase, z-score”: 0.449
Value for IFNA21 #3 in “viable cells, % of control”: 67.6
Result of C10orf71 #1 under “viable cells, % of control”: 86.3
Value of ANKRD26 #1 in “total luciferase, z-score”: 0.881
